These are yes or no findings as the source states them, for the method shown. For part of these data: Binding seen in cells or lysates may run through a third protein. Some entries that bind do so weakly or less than the wild type. For part of these data: Where a sequence is shown, tags or fusion partners need not be part of it.
T1: mouse CD5 antigen-like with c-MYC tag (pCMV3-CD5L-c-MYC) (mouse) (UniProt Q9QWK4)
T1 sequence: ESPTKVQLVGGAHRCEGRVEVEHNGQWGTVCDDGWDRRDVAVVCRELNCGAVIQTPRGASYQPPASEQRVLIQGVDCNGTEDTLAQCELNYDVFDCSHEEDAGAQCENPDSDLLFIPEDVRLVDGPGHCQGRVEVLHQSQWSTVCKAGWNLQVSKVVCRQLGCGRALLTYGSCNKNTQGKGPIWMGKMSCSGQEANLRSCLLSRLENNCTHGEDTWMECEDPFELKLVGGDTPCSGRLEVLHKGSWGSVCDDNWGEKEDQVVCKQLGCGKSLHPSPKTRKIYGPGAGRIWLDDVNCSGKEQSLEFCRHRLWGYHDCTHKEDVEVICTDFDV

T2: mouse IL-12/IL-23 p40 with c-MYC tag (mouse) (UniProt P43432)
T2 sequence: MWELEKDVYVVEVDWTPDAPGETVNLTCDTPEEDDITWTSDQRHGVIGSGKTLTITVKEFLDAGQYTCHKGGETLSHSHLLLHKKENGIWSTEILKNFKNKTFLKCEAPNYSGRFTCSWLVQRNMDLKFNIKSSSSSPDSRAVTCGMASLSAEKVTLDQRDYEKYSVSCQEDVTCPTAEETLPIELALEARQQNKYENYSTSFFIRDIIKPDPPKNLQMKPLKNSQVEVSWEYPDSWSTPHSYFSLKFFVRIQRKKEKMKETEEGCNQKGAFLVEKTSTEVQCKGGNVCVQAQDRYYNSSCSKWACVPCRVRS

T3: endogenous mouse CD5 antigen-like (mouse (endogenous in CD4+ T cells and serum of C57BL/6 mice)) (UniProt Q9QWK4)
T3 sequence: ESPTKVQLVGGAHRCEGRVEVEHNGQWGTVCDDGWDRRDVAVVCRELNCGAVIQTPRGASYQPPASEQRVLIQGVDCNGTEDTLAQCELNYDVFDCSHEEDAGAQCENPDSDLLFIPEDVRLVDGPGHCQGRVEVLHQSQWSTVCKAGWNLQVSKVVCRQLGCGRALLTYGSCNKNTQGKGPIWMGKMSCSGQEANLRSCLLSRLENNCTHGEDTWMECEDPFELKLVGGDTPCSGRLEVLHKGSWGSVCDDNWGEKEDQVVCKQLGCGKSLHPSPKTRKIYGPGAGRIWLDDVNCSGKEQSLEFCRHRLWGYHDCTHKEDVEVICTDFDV


Columns and labels:
[1] = biological target: T1, mouse CD5 antigen-like with c-MYC tag (pCMV3-CD5L-c-MYC) (mouse); experiment: ELISA; p19/CD5L-specific sandwich ELISA (anti-p19 5B2 capture, biotin-conjugated anti-CD5L detection) on culture supernatants of transiently transfected HEK293T cells, 3 days
[2] = biological target: T1, mouse CD5 antigen-like with c-MYC tag (pCMV3-CD5L-c-MYC) (mouse); experiment: co-IP; HEK293-F cells transiently cotransfected, 3 days; cell lysates (1% Nonidet P-40, 10 mM Tris-HCl pH 7.5, 150 mM NaCl, 1 mM EDTA) or culture supernatants; IP with anti-FLAG (M2) or anti-c-MYC (9E10) on protein G-Sepharose, 2 h to overnight at 4 °C; reducing SDS-PAGE; western blot with biotin-conjugated anti-c-MYC or anti-p19
[3] = biological target: T2, mouse IL-12/IL-23 p40 with c-MYC tag (mouse); experiment: as above
[4] = biological target: T3, endogenous mouse CD5 antigen-like (mouse (endogenous in CD4+ T cells and serum of C57BL/6 mice)); experiment: ELISA; p19/CD5L-specific sandwich ELISA on serum of WT mice taken over time during EAE
[5] = biological target: T3, endogenous mouse CD5 antigen-like (mouse (endogenous in CD4+ T cells and serum of C57BL/6 mice)); experiment: ELISA; p19/CD5L-specific sandwich ELISA on culture supernatants of naive CD4+ T cells activated under Th, Th0 and pathogenic Th17-polarizing conditions for 3 days, concentrated about 10 times
[6] = biological target: T3, endogenous mouse CD5 antigen-like (mouse (endogenous in CD4+ T cells and serum of C57BL/6 mice)); experiment: co-IP; culture supernatant of naive CD4+ T cells activated with anti-CD3 and anti-CD28 under pathogenic Th17-polarizing conditions for 3 days, concentrated about 8 times; IP with anti-CD5L (D-11); western blot with biotin-conjugated anti-p19

| binding [1] | binding [2] | binding [3] | binding [4] | binding [5] | binding [6] | Binder |
| --- | --- | --- | --- | --- | --- | --- |
| binds | binds | binds | – | – | – | mouse IL-23 p19 with C-terminal 3×FLAG (p3×FLAG-CMV-14-p19) (protein, UniProt Q9EQ14 22-196) VPRSSSPDWAQCQQLSRNLCMLAWNAHAPAGHMNLLREEEDEETKNNVPRIQCEDGCDPQGLKDNSQFCLQRIRQGLAFYKHLLDSDIFKGEPALLPDSPMEQLHTSLLGLSQLLQPEDHPRETQQMPSLSSSQQWQRPLLRSKILRSLQAFLAIAARVFAHGAATLTEPLVPTA |
| – | – | – | binds | binds | binds | endogenous mouse IL-23 p19 (protein, UniProt Q9EQ14 22-196) VPRSSSPDWAQCQQLSRNLCMLAWNAHAPAGHMNLLREEEDEETKNNVPRIQCEDGCDPQGLKDNSQFCLQRIRQGLAFYKHLLDSDIFKGEPALLPDSPMEQLHTSLLGLSQLLQPEDHPRETQQMPSLSSSQQWQRPLLRSKILRSLQAFLAIAARVFAHGAATLTEPLVPTA |

Source: publication PMC7933155, “IL-23p19 and CD5 antigen-like form a possible novel heterodimeric cytokine and contribute to experimental autoimmune encephalomyelitis development” (Scientific Reports, 2021)
